No constants are given. Whether binding was seen depends on the method and setting. Some entries that bind do so weakly or less than the wild type.
Target: ALK1-Fc (ALK1 extracellular domain-Fc fusion protein) (UniProt P37023)
Test: SPR; Biacore T100; ALK1-Fc (800 RU) or ALK1 monomer (270 RU) amine-coupled to a CM5 chip; ligands injected at 30 μl min^-1 in 0.01 M HEPES pH 7.4, 0.5 M NaCl, 3 mM EDTA, 0.5 mg ml^-1 BSA, 0.01% P20, 25 °C; 1:1 model with mass transport limitations; KD = kd/ka; both purified

By UniProt entry, the sequences of proteins in these tests, tags left out. Residues count along the entry.
UniProt P37023, residues 22-118: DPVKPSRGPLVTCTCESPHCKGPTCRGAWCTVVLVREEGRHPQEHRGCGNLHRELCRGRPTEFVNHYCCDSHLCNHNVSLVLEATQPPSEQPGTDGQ

binding: binds
B1: pro-BMP9 (prodomain-bound BMP9) (complex, UniProt Q9UK05 23-319; Q9UK05 320-429)
chain 1: KPLQSWGRGSAGGNAHSPLGVPGGGLPEHTFNLKMFLENVKVDFLRSLNLSGVPSQDKTRVEPPQYMIDLYNRYTSDKSTTPASNIVRSFSMEDAISITATEDFPFQKHILLFNISIPRHEQITRAELRLYVSCQNHVDPSHDLKGSVVIYDVLDGTDAWDSATETKTFLVSQDIQDEGWETLEVSSAVKRWVRSDSTKSKNKLEVTVESHRKGCDTLDISVPPGSRNLPFFVVFSNDHSSGTKETRLELREMISHEQESVLKKLSKDGSTEAGESSHEEDTDGHVAAGSTLARRKR
chain 2: SAGAGSHCQKTSLRVNFEDIGWDSWIIAPKEYEAYECKGGCFFPLADDVTPTKHAIVQTLVHLKFPTKVGKACCVPTKLSPISVLYKDDMGVPTLKYHYEGMSVAECGCR

Source: PMC7113306
